Patent US20160257930A1, “NEURONAL STEM CELL DIFFERENTIATION” (priority 2013, published 2016)
“Also recorded” adds a separate entry of the source. At least one structure is not confirmed: it was looked up by name or label, or the drawing left a doubt.

Columns and labels:
[1] = test system: iPS-derived neurons; assay: Whole-cell patch-clamp, current clamp: spontaneous action potentials and resting Vm; assay type: cell-based, human
Text: Ag/AgCl electrodes for patch-clamp were produced by leaving pure silver wire in bleach overnight. An Ag/AgCl pellet (Clark Electromedical Instruments) connected to the patch-clamp headstage was used as the bath (reference) electrode. Thin-walled, filamented, borosilicate glass tubes (World-Precision Instruments, UK) were pulled using a two-stage pipette puller (PP-830, Narishige, Japan) to give patch pipettes with a measured tip resistance of 3-6 MΩ when filled with the internal pipette solution. These pipettes were used to establish whole-cell configuration of the patch clamp technique.
Whole-cell patch-clamp was performed at room temperature. Plated down cells grown on glass coverslips were transferred into a perfusion chamber mounted on the stage of an inverted microscope equipped with phase-contrast optics mounted inside a Faraday cage on an anti-vibration air table (Wentworth Laboratories Ltd., Oxford, UK). […]
Current-clamp was used to apply current protocols, generated using Axon Laboratory's pClamp 9 software to the patched cell. These were recorded on-line for further analysis using the pClamp software. […] Recordings were made for approx. 60 s for a mean calculation of Vm and to allow for spontaneous action potentials to be recorded.
Data from the current step protocols were analysed in Clampfit and exported to Excel for further processing. […]

[2] = test system: PSC-derived neurons; assay type: cell-based, human

Compound: CN1CCc2cc3c(cc2[C@H]1[C@@H]1OC(=O)c2c1ccc1c2OCO1)OCO3 [bicuculline]
- ACM-evoked hyperpolarization (mean Vm) [1]: abolished
- Vm in high Ca2+ medium with blocker [1]: completely ablated; also recorded: depolarised the Vm
- GABAAR-dependent miniature synaptic currents [2]: entirely abolished
